Data as given in PubChem BioAssay AID1259299 (Sanger Institute, 2017)
Assay: 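Kinases and colorectal mutated genes needed by colorectal cancer cells, with or without drugs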 (primary screen). Cell system: human CAR1 colorectal cancer cells. Reagents: siRNA pool against human genes. Treatment: anchor drug BYL719 1 µM, cetuximab 5 µg/ml or trametinib 10 nM, or DMSO vehicle alone; exposure length not given. Detection: 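Mean replicate viability versus non-targeting controls, turned into robust z-scores, plus drug synergy scores for BYL719, cetuximab and trametinib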. Direction: viability robust z-score, knock-down alone and viability, knock-down alone (DMSO): higher = more viable cells; synergy score with BYL719 and synergy score with cetuximab and synergy score with trametinib: higher = stronger synergy with drug (synthetic lethal). Active means: 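a gene is called essential if its knock-down-alone viability z-score drops under -3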. Calls: active = essential (knock-down alone); inactive = no change.
The deposit covers 794 reagents; this is a random part of them. 9 of them (1.1%) were called active. 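Calls rest on knock-down alone; synergy scores play no part in calls, and no gene passed the synergy cut.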 No viability above 1 is reported: the scale is capped. Reagent sequences are not shown. Not stated in the record: the amount of reagent, the time to read-out.

gene symbol | viability robust z-score, knock-down alone | viability, knock-down alone (DMSO) (fraction of control) | synergy score with BYL719 | synergy score with cetuximab | synergy score with trametinib | call
MARK3 (GeneID 4140) | -2.19 | 0.725 | -0.0843 | -0.161 | 0.0228 | inactive
AMHR2 (GeneID 269) | -2.02 | 0.741 | 0.0195 | -0.0742 | 0.0218 | inactive
ERN2 (GeneID 10595) | 0.789 | 1 | -0.206 | -0.073 | -0.0741 | inactive
MAGI2 (GeneID 9863) | -0.59 | 0.873 | -0.145 | -0.0276 | -0.00465 | inactive
GRK1 (GeneID 6011) | 0.545 | 0.977 | -0.185 | -0.0939 | -0.0575 | inactive
TRIM27 (GeneID 5987) | 0.789 | 1 | -0.029 | -0.0141 | 0.0314 | inactive
STK16 (GeneID 8576) | 0.789 | 1 | -0.204 | -0.073 | -0.111 | inactive
PRKCH (GeneID 5583) | -1.51 | 0.788 | -0.142 | -0.21 | -0.16 | inactive
CDKL4 (GeneID 344387) | -0.808 | 0.853 | -0.179 | -0.0803 | 0.0427 | inactive
DGUOK (GeneID 1716) | 0.286 | 0.954 | 0.0761 | 0.0285 | 0.0823 | inactive
CDKN2D (GeneID 1032) | -0.365 | 0.893 | -0.112 | -0.0452 | -0.0216 | inactive
AKT2 (GeneID 208) | -1.38 | 0.8 | -0.0753 | -0.209 | 0.0172 | inactive
BRSK1 (GeneID 84446) | 0.789 | 1 | -0.18 | -0.073 | -0.0778 | inactive
BMPR2 (GeneID 659) | 0.357 | 0.96 | -0.0855 | -0.0269 | -0.0656 | inactive
MYH10 (GeneID 4628) | 0.6 | 0.983 | -0.0375 | -0.00295 | 0.0781 | inactive
PIK3C2B (GeneID 5287) | 0.341 | 0.959 | -0.186 | -0.0157 | 0.00906 | inactive
STK24 (GeneID 8428) | 0.789 | 1 | -0.166 | -0.0117 | -0.131 | inactive
CILK1 (GeneID 22858) | -0.27 | 0.902 | -0.201 | -0.0963 | 0.0102 | inactive
CDK5R2 (GeneID 8941) | 0.789 | 1 | -0.122 | 0.0359 | -0.121 | inactive
GK2 (GeneID 2712) | 0.789 | 1 | -0.0548 | -0.00235 | -0.111 | inactive
MARK4 (GeneID 57787) | -0.616 | 0.87 | -0.131 | -0.193 | -0.151 | inactive
PI4K2B (GeneID 55300) | -1.3 | 0.807 | -0.197 | -0.206 | -0.0905 | inactive
MYLK2 (GeneID 85366) | -2.46 | 0.7 | -0.142 | -0.218 | -0.0851 | inactive
CAMK2D (GeneID 817) | 0.789 | 1 | -0.182 | -0.073 | -0.175 | inactive
CDC42BPB (GeneID 9578) | 0.789 | 1 | -0.206 | -0.073 | 0.029 | inactive
CKM (GeneID 1158) | 0.575 | 0.98 | -0.15 | -0.0913 | -0.157 | inactive
STK38L (GeneID 23012) | -1.23 | 0.814 | -0.106 | -0.0769 | 0.0169 | inactive
UCK1 (GeneID 83549) | 0.768 | 0.998 | -0.0732 | -0.0709 | -0.169 | inactive
TNK2 (GeneID 10188) | 0.789 | 1 | -0.206 | -0.073 | -0.221 | inactive
WEE1 (GeneID 7465) | -3.76 | 0.579 | -0.129 | -0.0553 | -0.0353 | active
TSSK1B (GeneID 83942) | 0.736 | 0.995 | -0.142 | -0.0299 | -0.0941 | inactive
GUCY2EP (GeneID 390226) | -0.958 | 0.839 | -0.0831 | -0.137 | -0.0797 | inactive
MAGI3 (GeneID 260425) | 0.721 | 0.994 | -0.113 | -0.0788 | -0.0337 | inactive
NF1 (GeneID 4763) | 0.789 | 1 | -0.0776 | -0.0399 | 0.0641 | inactive
MKNK1 (GeneID 8569) | 0.717 | 0.993 | -0.0434 | 0.0303 | -0.111 | inactive
CLK1 (GeneID 1195) | 0.284 | 0.953 | -0.125 | -0.0784 | -0.156 | inactive
CDC42BPG (GeneID 55561) | 0.789 | 1 | -0.165 | -0.073 | -0.153 | inactive
MAPK3 (GeneID 5595) | -0.87 | 0.847 | -0.216 | 0.00471 | -0.0207 | inactive
RET (GeneID 5979) | 0.789 | 1 | -0.0148 | -0.0273 | -0.0846 | inactive
ITSN1 (GeneID 6453) | -0.358 | 0.894 | -0.101 | -0.162 | -0.107 | inactive
INSR (GeneID 3643) | 0.417 | 0.966 | -0.215 | -0.105 | -0.171 | inactive
PIP4K2C (GeneID 79837) | 0.789 | 1 | -0.096 | -0.0334 | -0.0274 | inactive
PRKAG3 (GeneID 53632) | -2.37 | 0.709 | -0.0552 | -0.146 | -0.0642 | inactive
TBK1 (GeneID 29110) | -1.49 | 0.79 | -0.173 | -0.24 | -0.0183 | inactive
NRBP2 (GeneID 340371) | -0.692 | 0.863 | -0.0588 | 0.0328 | -0.0997 | inactive
NEK6 (GeneID 10783) | 0.789 | 1 | -0.0721 | -0.073 | -0.215 | inactive
PDGFRL (GeneID 5157) | -0.541 | 0.877 | -0.187 | -0.105 | -0.125 | inactive
DUSP21 (GeneID 63904) | 0.713 | 0.993 | -0.132 | 0.0324 | -0.0368 | inactive
PDGFRB (GeneID 5159) | -1.68 | 0.772 | -0.0614 | -0.136 | -0.0229 | inactive
MAP3K5 (GeneID 4217) | -0.00676 | 0.927 | -0.194 | -0.0766 | -0.152 | inactive
GUCY2F (GeneID 2986) | 0.12 | 0.938 | -0.208 | -0.1 | -0.149 | inactive
CDK19 (GeneID 23097) | -1.12 | 0.824 | -0.0898 | -0.218 | -0.206 | inactive
ACSL6 (GeneID 23305) | 0.789 | 1 | -0.107 | -0.073 | -0.157 | inactive
MAP3K4 (GeneID 4216) | 0.789 | 1 | -0.195 | -0.073 | -0.22 | inactive
ACVRL1 (GeneID 94) | 0.0932 | 0.936 | -0.0854 | -0.0505 | 0.0362 | inactive
MKNK2 (GeneID 2872) | -0.465 | 0.884 | -0.0656 | 0.0027 | -0.0222 | inactive
MECOM (GeneID 2122) | 0.789 | 1 | -0.165 | -0.073 | -0.158 | inactive
PI4KB (GeneID 5298) | 0.657 | 0.988 | -0.0735 | -0.0843 | 0.0599 | inactive
CSNK1D (GeneID 1453) | 0.165 | 0.942 | -0.168 | -0.119 | -0.185 | inactive
BUB1B (GeneID 701) | -0.215 | 0.907 | -0.17 | 0.0416 | -0.106 | inactive
PLK2 (GeneID 10769) | 0.789 | 1 | -0.119 | -0.0349 | -0.109 | inactive
AGK (GeneID 55750) | 0.789 | 1 | -0.147 | -0.073 | -0.158 | inactive
CSNK1E (GeneID 1454) | -2.54 | 0.692 | -0.0586 | -0.153 | -0.0691 | inactive

9 successive entries already listed, for reference:
gene symbol | viability robust z-score, knock-down alone | viability, knock-down alone (DMSO) (fraction of control) | synergy score with BYL719 | synergy score with cetuximab | synergy score with trametinib | call
CKM (GeneID 1158) | 0.575 | 0.98 | -0.15 | -0.0913 | -0.157 | inactive
STK38L (GeneID 23012) | -1.23 | 0.814 | -0.106 | -0.0769 | 0.0169 | inactive
UCK1 (GeneID 83549) | 0.768 | 0.998 | -0.0732 | -0.0709 | -0.169 | inactive
TNK2 (GeneID 10188) | 0.789 | 1 | -0.206 | -0.073 | -0.221 | inactive
WEE1 (GeneID 7465) | -3.76 | 0.579 | -0.129 | -0.0553 | -0.0353 | active
TSSK1B (GeneID 83942) | 0.736 | 0.995 | -0.142 | -0.0299 | -0.0941 | inactive
GUCY2EP (GeneID 390226) | -0.958 | 0.839 | -0.0831 | -0.137 | -0.0797 | inactive
MAGI3 (GeneID 260425) | 0.721 | 0.994 | -0.113 | -0.0788 | -0.0337 | inactive
NF1 (GeneID 4763) | 0.789 | 1 | -0.0776 | -0.0399 | 0.0641 | inactive
